PubChem BioAssay AID1224828, NIAID – 2016
Shown is an unselected part of about 17,000 reagents. Of all reagents, 762 (4.5%) are marked active. 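Active calls include both raised and lowered p65 entry, mostly lowered; wells with fewer than 50 cells lack a z-score.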 Raw values are not corrected between plates.

Aim: 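Knock-downs that increase or decrease LPS-induced p65 nuclear translocation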 (primary screen)
Cells: mouse RAW264.7 G9 macrophage reporter cells (GFP-p65, Tnf promoter-mCherry)
Reagent: siRNA pool against mouse genes, 100 nM
Time to read-out: 2 days siRNA transfection, then 40 min LPS before fixation
Conditions: LPS (Salmonella minnesota R595) at 10 ng/ml
Measurement: 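Microscopy ratio of nuclear to perinuclear-ring GFP-p65 signal, scaled to the plate median; gene score is the average of two replicate robust z-scores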
Direction: p65 translocation robust z-score: higher = more nuclear NF-kappaB p65 after LPS than the plate median; nuclear/cytoplasmic p65 ratio: higher = more nuclear NF-kappaB p65
Rule for the call: 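Active if robust z is above 3.3 (negative regulators) or below -1.56, the Tlr4 control median (positive regulators); activity score 50 or more; control wells not called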
Meaning of the calls: active = hit (p65 shift raised or lowered); inactive = no clear change

After knock-down of Picalm (phosphatidylinositol binding clathrin assembly protein), the screen gave p65 translocation robust z-score 2.02; nuclear/cytoplasmic p65 ratio, rep 1 = 1.75; nuclear/cytoplasmic p65 ratio, rep 2 = 1.7; low cell count flag enough cells to score; inactive.
After knock-down of B3galnt1 the results were p65 translocation robust z-score 1.22; nuclear/cytoplasmic p65 ratio, rep 1 = 1.71; nuclear/cytoplasmic p65 ratio, rep 2 = 1.47; low cell count flag enough cells to score; inactive.
Tfpt (TCF3 (E2A) fusion partner) showed p65 translocation robust z-score -0.7; nuclear/cytoplasmic p65 ratio, rep 1 = 1.39; nuclear/cytoplasmic p65 ratio, rep 2 = 1.45; low cell count flag enough cells to score; inactive.
Bach2 showed p65 translocation robust z-score 0.92; nuclear/cytoplasmic p65 ratio, rep 1 = 1.84; nuclear/cytoplasmic p65 ratio, rep 2 = 1.67; low cell count flag enough cells to score; inactive.
Scn5a (sodium channel, voltage-gated, type V, alpha) scored p65 translocation robust z-score 0.04; nuclear/cytoplasmic p65 ratio, rep 1 = 1.53; nuclear/cytoplasmic p65 ratio, rep 2 = 1.23; low cell count flag enough cells to score; inactive.
Against Adgrg7 (adhesion G protein-coupled receptor G7), the entry reads p65 translocation robust z-score 1.62; nuclear/cytoplasmic p65 ratio, rep 1 = 1.74; nuclear/cytoplasmic p65 ratio, rep 2 = 1.81; low cell count flag enough cells to score; inactive.
Cdc42ep5 (CDC42 effector protein 5) showed p65 translocation robust z-score 0.1; nuclear/cytoplasmic p65 ratio, rep 1 = 1.54; nuclear/cytoplasmic p65 ratio, rep 2 = 1.87; low cell count flag enough cells to score; inactive.
Fam3a (FAM3 metabolism regulating signaling molecule A) showed nuclear/cytoplasmic p65 ratio, rep 1 = 2.03; nuclear/cytoplasmic p65 ratio, rep 2 = 1.41; low cell count flag fewer than 50 cells per well; well left out of scoring; inactive.
For Gdi1 (GDP dissociation inhibitor 1), the entry reads p65 translocation robust z-score -1.64; nuclear/cytoplasmic p65 ratio, rep 1 = 1.31; nuclear/cytoplasmic p65 ratio, rep 2 = 1.18; low cell count flag enough cells to score; active.
Pax9 (paired box 9) scored p65 translocation robust z-score 0.06; nuclear/cytoplasmic p65 ratio, rep 1 = 1.42; nuclear/cytoplasmic p65 ratio, rep 2 = 1.45; low cell count flag enough cells to score; inactive.
Toporsl (topoisomerase I binding, arginine/serine-rich like) gave nuclear/cytoplasmic p65 ratio, rep 1 = 1.67; nuclear/cytoplasmic p65 ratio, rep 2 = 1.35; low cell count flag fewer than 50 cells per well; well left out of scoring; inactive.
For Or2ah1 (olfactory receptor family 2 subfamily AH member 1) the deposit lists p65 translocation robust z-score 1.91; nuclear/cytoplasmic p65 ratio, rep 1 = 1.85; nuclear/cytoplasmic p65 ratio, rep 2 = 1.95; low cell count flag enough cells to score; inactive.
Silencing of Pgam1 (phosphoglycerate mutase 1) came out at: p65 translocation robust z-score -0.09; nuclear/cytoplasmic p65 ratio, rep 1 = 1.5; nuclear/cytoplasmic p65 ratio, rep 2 = 1.34; low cell count flag enough cells to score; inactive.
Dync1li1 (dynein cytoplasmic 1 light intermediate chain 1) gave nuclear/cytoplasmic p65 ratio, rep 1 = 1.3; nuclear/cytoplasmic p65 ratio, rep 2 = 1.2; low cell count flag fewer than 50 cells per well; well left out of scoring; inactive.
Knock-down of Oxld1 (oxidoreductase like domain containing 1) gave: nuclear/cytoplasmic p65 ratio, rep 1 = 1.29; nuclear/cytoplasmic p65 ratio, rep 2 = 1.39; low cell count flag fewer than 50 cells per well; well left out of scoring; inactive.
Silencing of Gsn (gelsolin) came out at: p65 translocation robust z-score -1.03; nuclear/cytoplasmic p65 ratio, rep 1 = 1.31; nuclear/cytoplasmic p65 ratio, rep 2 = 1.22; low cell count flag enough cells to score; inactive.

Called active, of those listed so far:
Gdi1 (GDP dissociation inhibitor 1) — p65 translocation robust z-score: -1.64; nuclear/cytoplasmic p65 ratio, rep 1: 1.31; nuclear/cytoplasmic p65 ratio, rep 2: 1.18; low cell count flag: enough cells to score; Call: active

The results go on:
Sgsm2 (small G protein signaling modulator 2) gave p65 translocation robust z-score -1.6; nuclear/cytoplasmic p65 ratio, rep 1 = 1.31; nuclear/cytoplasmic p65 ratio, rep 2 = 1.34; low cell count flag enough cells to score; active.
After knock-down of Psmd8 (proteasome (prosome, macropain) 26S subunit, non-ATPase, 8), the record shows nuclear/cytoplasmic p65 ratio, rep 1 = 1.53; nuclear/cytoplasmic p65 ratio, rep 2 = 1.59; low cell count flag fewer than 50 cells per well; well left out of scoring; inactive.
Eid3 (EP300 interacting inhibitor of differentiation 3) scored p65 translocation robust z-score 2.76; nuclear/cytoplasmic p65 ratio, rep 1 = 1.73; nuclear/cytoplasmic p65 ratio, rep 2 = 1.8; low cell count flag enough cells to score; inactive.
Depletion of Il2rb (interleukin 2 receptor, beta chain) gave: p65 translocation robust z-score 0.73; nuclear/cytoplasmic p65 ratio, rep 1 = 1.58; nuclear/cytoplasmic p65 ratio, rep 2 = 1.47; low cell count flag enough cells to score; inactive.
With knock-down of Or13a26 (olfactory receptor family 13 subfamily A member 26) the results were p65 translocation robust z-score 0.12; nuclear/cytoplasmic p65 ratio, rep 1 = 1.46; nuclear/cytoplasmic p65 ratio, rep 2 = 1.38; low cell count flag enough cells to score; inactive.
After knock-down of Kcnj8 (potassium inwardly-rectifying channel, subfamily J, member 8), the screen gave p65 translocation robust z-score 0.87; nuclear/cytoplasmic p65 ratio, rep 1 = 1.61; nuclear/cytoplasmic p65 ratio, rep 2 = 1.48; low cell count flag enough cells to score; inactive.
Insyn1 (inhibitory synaptic factor 1) showed p65 translocation robust z-score 1.02; nuclear/cytoplasmic p65 ratio, rep 1 = 1.45; nuclear/cytoplasmic p65 ratio, rep 2 = 1.6; low cell count flag enough cells to score; inactive.
Against Sav1 (salvador family WW domain containing 1), the entry reads p65 translocation robust z-score -0.72; nuclear/cytoplasmic p65 ratio, rep 1 = 1.31; nuclear/cytoplasmic p65 ratio, rep 2 = 1.15; low cell count flag enough cells to score; inactive.
After knock-down of Slc35e2, the screen gave p65 translocation robust z-score 0.99; nuclear/cytoplasmic p65 ratio, rep 1 = 1.2; nuclear/cytoplasmic p65 ratio, rep 2 = 1.67; low cell count flag enough cells to score; inactive.
With knock-down of Krtap19-1 (keratin associated protein 19-1), the record shows p65 translocation robust z-score -2.63; nuclear/cytoplasmic p65 ratio, rep 1 = 1.21; nuclear/cytoplasmic p65 ratio, rep 2 = 1.05; low cell count flag enough cells to score; active.
Cybc1 (cytochrome b 245 chaperone 1) gave p65 translocation robust z-score 0.31; nuclear/cytoplasmic p65 ratio, rep 1 = 1.62; nuclear/cytoplasmic p65 ratio, rep 2 = 1.91; low cell count flag enough cells to score; inactive.
